# Values of other authors as cited in US11433075B2, “Methods of treating glioblastoma” (TriAct Therapeutics, Inc., priority 2017, dated 2022).
# Like-named read-outs stand apart in the source and are kept apart here. At least one structure is not confirmed: it was looked up by name or label, or the drawing left a doubt.
# Key:
# GBM patients = details: cited from earlier work
# [1] = tested on: same patient population (newly diagnosed GBM); details: cited from earlier work
smiles,measurement,setting,value
Cn1nnc2c(C(N)=O)ncn2c1=O [temozolomide],Median Overall Survival Months,"GBM patients; RTOG 0525, 2013 DD arm, n = 422",14.9 Months
same,Median Overall Survival Months,"GBM patients; RTOG 0525, 2013 STD arm, n = 411",16.6 Months
same,"Median Overall Survival, mOS, MGMT methylated","GBM patients; RTOG 0525, ddTMZ, n = 123",20.2 (n = 123) ddTMZ Months
same,"Median Overall Survival, mOS, MGMT unmethylated","GBM patients; RTOG 0525, ddTMZ, n = 263",13.3 (n = 263) ddTMZ Months
same,"Median Overall Survival, mOS, MGMT methylated","GBM patients; RTOG 0525, sTMZ, n = 122",21.4 (n = 122) sTMZ Months
same,"Median Overall Survival, mOS, MGMT unmethylated","GBM patients; RTOG 0525, sTMZ, n = 254",14.6 (n = 254) sTMZ Months
same,"Median Overall Survival, mOS, MGMT methylated","[1]; EORTC Stupp, 2005, n = 46",21.7 (n = 46) Months
same,"Median Overall Survival, mOS, MGMT unmethylated","[1]; EORTC Stupp, 2005, n = 60",12.7 (n = 60) Months
same,Median Overall Survival Months,"[1]; EORTC Stupp, 2005 n = 287, RT + temozolomide",14.6 Months
same,2 Year Survival,"[1]; EORTC Stupp, 2005 n = 287",27.2 % patients
same,3 Year Survival,"[1]; EORTC Stupp, 2005 n = 287",16.0 % patients
